The other results are listed elsewhere or left out. Further columns of the screen follow, without active or inactive calls. Compounds called inactive in the main read-out are mostly missing here. The note in brackets gives the kind of curve behind each potency; many fits are weak.
Test: qHTS Assay for Modulators of Lamin A Splicing
Details: HeLa LMNA splicing GFP/RFP minigene ratio, 48 h
Outline: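 Read-out is the ratio of GFP to DsRed2 object intensity, acquired by 488 nm laser-scanning cytometry on HeLa lamin A-EGFP minigene reporter cells. Compound incubation 48 hrs at 37 °C in Opti-MEM with 2% FBS; DMSO 0.5% final.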

[1] = measured here: RFP viability control channel
[2] = measured here: GFP splicing reporter channel

Compound	AC50 [1]	AC50 [2]
COc1ccc(-c2nn(-c3ccccc3)cc2/C=N/NC(=O)c2cccc(S(=O)(=O)Nc3ccccc3Cl)c2)cc1	12.6 µM [rising, partial curve, poor fit]	–
Cc1ccc(-c2nnc(SCc3ccccc3F)o2)cc1	31.6 µM [rising, single point]	–
COc1cc(Nc2ncc3c(n2)CCN(Cc2cc(Br)cs2)C3)cc(OC)c1	–	35.5 µM [falling, single point]
COC(=O)c1cc(C(=O)c2ccc(C(C)(C)C)cc2)c[nH]1	12.6 µM [falling, partial curve]	3.98 µM [falling, partial curve]
CCCC(=O)c1cc2ccccc2oc1=O	12.6 µM [rising, single point]	–
CCCCN=c1scc(-c2ccc3c(c2)NC(=O)CO3)n1N=C1CCCC1	22.4 µM [rising, single point]	–
Oc1cccc(-c2nc3ccc4ccccc4c3c3c2CCC3)c1	14.1 µM [falling, partial curve]	35.5 µM [falling, single point]
Cc1sc(NC(=O)Cc2ccc3c(c2)OCO3)nc1-c1ccc2c(c1)CCN2C(=O)c1ccccc1F	4.47 µM [rising, full curve]	–
Cc1occc1C(=O)Nc1ccc(OCc2ccccc2)cc1	–	14.1 µM [rising, single point]
Cc1ccc(Cl)cc1Nc1nc(-c2sc(NC(=O)c3ccco3)nc2C)cs1	3.16 µM [falling, single point]	5.01 µM [falling, single point]
CCOc1ccc(OCCSc2nnnn2C2CCCCC2)cc1	35.5 µM [rising, single point]	35.5 µM [rising, single point]
Cc1ccc(S(=O)(=O)Nc2ccc(C(OC(=O)c3ccccc3[N+](=O)[O-])(C(F)(F)F)C(F)(F)F)cc2)cc1	2.24 µM [rising, single point]	–
Cc1cc(C)n2nc(C(=O)OCC(=O)N3CCC3)nc2n1	–	0.794 µM [falling, full curve, poor fit]
Cc1cc2c(cc1C)N(C(=O)CN1C(=O)c3ccccc3C1=O)C(C)(C)c1ssc(=S)c1-2	35.5 µM [rising, single point]	–
COc1ccc(-c2n[nH]c(C(F)(F)F)c2-c2cc3ccccc3o2)c(O)c1	–	35.5 µM [rising, single point]
Cn1c(-c2ccc3c(c2)OCO3)cc(=O)c2ccccc21	3.16 µM [falling, single point]	5.01 µM [falling, single point]
CCc1nnc(NS(=O)(=O)c2ccc(NC(=S)NC(=O)c3ccccc3)cc2)s1	0.0224 µM [rising, full curve, poor fit]	–
CCOc1ccc(C(C)=O)cc1CN1C(=O)NC(C)(C2CC2)C1=O (stereo not drawn)	0.316 µM [falling, full curve, poor fit]	0.0891 µM [falling, full curve]

Of the compounds above, these have a Cl atom.
Compound	AC50 [1]	AC50 [2]
COc1ccc(-c2nn(-c3ccccc3)cc2/C=N/NC(=O)c2cccc(S(=O)(=O)Nc3ccccc3Cl)c2)cc1	12.6 µM [rising, partial curve, poor fit]	–
Cc1ccc(Cl)cc1Nc1nc(-c2sc(NC(=O)c3ccco3)nc2C)cs1	3.16 µM [falling, single point]	5.01 µM [falling, single point]

(listing goes on)

Compound	AC50 [1]	AC50 [2]
CC[C@@H](C)[C@H](NS(=O)(=O)c1ccc(C)cc1)C(=O)N1CCC(C(=O)NCC(=O)O)CC1	3.16 µM [falling, single point]	–
C[C@@H](NC(=O)c1coc(=O)c(Br)c1)c1ccccc1	31.6 µM [rising, single point]	–
NS(=O)(=O)c1ccc(NC(=O)COc2ncnc3c2cnn3-c2ccccc2)cc1	1.58 µM [rising, partial curve, poor fit]	1 µM [rising, full curve, poor fit]
CCOC(=O)N1CCN(CC(O)COc2ccc(C)cc2C(C)(C)C)CC1 (stereo not drawn)	15.8 µM [rising, partial curve, poor fit]	10 µM [rising, partial curve, poor fit]
O=C(NCC(c1cccnc1)N1CCN(c2ccc(F)cc2)CC1)OCc1ccccc1 (stereo not drawn)	31.6 µM [rising, single point]	–
COc1ccc2c(-c3ccccc3)cc(=O)[nH]c2c1	–	0.00398 µM [rising, full curve, poor fit]
CC(NCc1ccc2c(c1)OCO2)C(=O)NC1CCCCC1 (stereo not drawn)	–	1.41 µM [rising, full curve, poor fit]
O=C(Nc1ccc2nc(SCC(=O)N3CCc4ccccc43)sc2c1)c1ccc(F)cc1	35.5 µM [falling, partial curve]	35.5 µM [falling, single point]
COc1cccc(CN(C(=O)/C=C/c2ccc(Cl)cc2)C2CCS(=O)(=O)C2)c1 (stereo not drawn)	35.5 µM [falling, partial curve]	35.5 µM [falling, partial curve]
CCn1c(-c2ccc(F)cc2)cnc1SCC(=O)N1CCc2ccccc21	25.1 µM [rising, single point]	–
Cc1cc[n+](CC(=O)c2ccc(NC(=O)c3ccccc3)cc2)c2ccccc12	–	11.2 µM [falling, partial curve]
Cc1nc([N+](=O)[O-])nn1C12CC3CC(CC(Br)(C3)C1)C2	5.62 µM [falling, single point]	6.31 µM [falling, single point]
O=C(CCC(=O)c1cccs1)c1cccs1	35.5 µM [falling, single point]	–
CCc1nc(SCc2ccccn2)[nH]c(=O)c1C	31.6 µM [rising, partial curve]	–
COc1ccc(-c2noc(CCC(=O)N(C)c3cccc(C)c3)n2)cc1	35.5 µM [rising, single point]	–
OC1CCCN(c2c3c(nc4cc(-c5cccc(Cl)c5)nn24)CCC3)C1 (stereo not drawn)	35.5 µM [rising, single point]	–
Cc1ccc(CNC(=O)c2ccc(N3CCc4ccccc43)c([N+](=O)[O-])c2)cc1	20 µM [rising, single point]	–
CC(C)=C1C2CC2C2C(C(=O)O)C12 (stereo not drawn)	2.82 µM [rising, partial curve, poor fit]	5.01 µM [rising, partial curve]
